Test results taken from EP1360961A1, “Use of antimicrobial peptides for potentiating the activity of antimicrobial agents” (AM-Pharma B.V., priority 2002, dated 2003).
Not every detail of the peptide structures is certain; ends, links or a residue may be inferred. Some entries repeat one wording, which the source may state once for all of them. Where no end group is shown, it is not given here.

System: C. albicans cells
Test: Sequential exposure of Candida to peptide and fluconazole (preincubation, wash, reincubation with the other agent)
Format: cell-based
Settings: antimicrobial peptide removed from the microbes before contact with the microbistatic agent

LLLFLLKKRKKRKY [DHVAR5]
microbicidic effect: same microbicidic effect was even observed
